Reference: the supplement of paper PMC11732987, “Enantioselective OTUD7B fragment discovery through chemoproteomics screening and high-throughput optimisation” (Communications Chemistry, 2025)
The other results are listed elsewhere or left out. The data scatter; read single values as rough.

Compound: ClCC(=O)N[C@H]1CCCc2ccccc12
Test: log2 mean competition ratio of IA-DTB cysteine labelling (DMSO/compound) (log2 ratio); higher = stronger cysteine engagement by compound
Settings: 200 µM; treatment time: 4 h; cell line lysate: HEK293T
Description: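 IA-DTB competitive cysteine chemoproteomics in HEK293T RIPA lysate. Lysates were treated with compound 29 or 30 at 50 or 200 µM for 4 h, then IA-DTB (500 µM, 1 h), trypsin-digested, NeutrAvidin-enriched and analysed by diaPASEF. Competition ratio = intensity DMSO / intensity compound (n=4 treated, n=64 DMSO); binding: mean log2 CR ≥ 1 and p ≤ 0.05 plus QC filters. Target is the cysteine site.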

Target	log2 mean competition ratio
KDM6A C1023 (UniProt O15550)	-0.195
KAT7 C602 (UniProt O95251)	0.115
ITPR2 C292 (UniProt Q14571)	0.276
KHNYN C245 (UniProt O15037)	0.248
KIAA1671 C585	0.447
ITPR2 C1522 (UniProt Q14571)	-0.446
JKAMP C181	-0.044
KIF18A C749	0.229
KIDINS220 C1050 (UniProt Q9ULH0)	0.328
JRKL C102	0.0983
ITPK1 C156 (UniProt Q13572)	0.327
KIF18A C710	0.124
ITPR1 C292 (UniProt Q14643)	-0.261
KIF2C C455 (UniProt Q99661)	0.307
JCAD C722	-0.161
KDSR C245 (UniProt Q06136)	-0.239
KIF23 C165 (UniProt Q02241)	-0.0999
KIDINS220 C1646 (UniProt Q9ULH0)	0.23
KDM6A C4 (UniProt O15550)	-0.215

Fetched one by one from the list above (two):
Target	log2 mean competition ratio
ITPR2 C292 (UniProt Q14571)	0.276
KAT7 C602 (UniProt O95251)	0.115

(continued)

Target	log2 mean competition ratio
IST1 C125 (UniProt P53990)	0.06
KIAA1586 C758 (UniProt Q9HCI6)	0.0753
ITM2C C96 (UniProt Q9NQX7)	-0.181
KIF26A C915 (UniProt Q9ULI4)	0.488
KAT6A C33	0.138
KDM6A C797 (UniProt O15550)	-0.0372
KIF20B C480 (UniProt Q96Q89)	-0.259
ITM2B C38 (UniProt Q9Y287)	-0.402
ISCA2 C56 (UniProt Q86U28)	0.0441
KIAA1958 C73	0.311
ITSN2 C1389 (UniProt Q9NZM3)	-0.373
KBTBD8 C413 (UniProt Q8NFY9)	-0.376
KATNB1 C556 (UniProt Q9BVA0)	-0.274
KAT8 C230 (UniProt Q9H7Z6)	0.364
KIAA0232 C703	-0.0707
JCAD C785	-0.0787
KIF16B C1141 (UniProt Q96L93)	-0.0795
IRS4 C332	0.135
